Data on two substances can be found in publication PMC10932164.

The test has as its target Myelin basic protein (MBP), N-terminal flanked with FLAG epitope (UniProt P02686). In words: co-IP; HEK 293T cells co-transfected with Strep-Bri2 variant and FLAG-MBP, 48 h; lysis in TNE buffer (50 mM Tris-HCl pH 7.4, 100 mM NaCl, 1 mM EDTA) with 1% octyl beta-D-glucopyranoside; ANTI-FLAG M2 Affinity Gel at 4 °C overnight; eluates immunoblotted.

Results are given in words; binding and its absence hold for the method and conditions named. In cells and extracts the contact can be indirect. Some binding calls cover weakened binding; strength is not graded here.

As to “Bri2 with deletion of the Bri23 peptide (mBri2, mature Bri2) with N-terminal Strep-Tag (from UniProt Q9Y287 1-243) (domain or fragment)”, the binding entry is reported as “binds”. To “full-length human Bri2 (integral membrane protein 2B, ITM2B) with N-terminal Strep-Tag (from UniProt Q9Y287 1-266)” belongs “binds”.
